Consider 5 compounds from patent US6402037B1, “Two-photon upconverting dyes and applications” (The Research Foundation of State University of New York, priority 1995, dated 2002).

Series [1] is described as follows: Two-photon pumped cavity lasing of APSS solution filled hollow fiber (800 nm pump). From the text: As a comparison, the absorption spectrum of 1 mm-path length pure solvent (DMSO) is also provided. There is a strong absorption band around 400 nm due to APSS dye, and the solution is transparent in the 570˜1100 nm spectral range. However, the two-photon energy of ˜800 nm IR radiation falls into the strong absorption band. Therefore, an effective TPA process is expected by ˜800 nm excitation. […] The same effect is expected with increased path length of the solution sample with a given concentration.
The input 800 nm pump IR laser beam was provided by a pulsed dye laser pumped with a Q-switched and frequency-doubled Nd: YAG laser source. The beam size, pulse duration, angular divergence, and repetition rate of the input pump laser radiation were ˜3 mm, ˜5 ns, ˜1 mrad, and 1-10 Hz, respectively. The pump beam was focused by a 4×-microscope objective into the input end of a 15-cm long hollow quartz fiber filled with APSS, prepared as described in Example 16, in DMSO (do=0.012 M). The internal diameter of the hollow fiber sample was 100 μm, and the two open ends of the fiber were immersed in two identical liquid coupling cells which were filled with the same dye solution. Each cell was equipped with an optical window. Two mirrors were adapted to form the optical cavity. The front cavity mirror (M1) was a plane dielectric coating mirror with a reflectivity of 40% at ˜565 nm and ˜1.06 μm. The optical path between the back mirror M2 and the output fiber end was 2 cm. The total optical path length of the cavity was ˜30 cm. Under the excitation of the input 800 nm pump beam, a strong TPA induced green fluorescence emission was seen from the hollow fiber. Once the input pump intensity increased to a threshold level, very intense backward cavity lasing was observed through a beam spitter (BS). […]
The spectral intensity distribution of two-photon pumped cavity lasing from the above system is shown in FIG. 16 (dashed curve) at a pump energy level of Eo=290 μJ. For comparison, the one photon (at 400 nm) induced fluorescence spectrum of the same dye solution with the same concentration is also shown in FIG. 16 (solid curve). The bandwidth of cavity lasing was much narrower than the bandwidth of corresponding one-photon induced fluorescence emission without using any intracavity dispersion element. […] Therefore, the blue-side and central range of the fluorescence band would be expected to be more difficult to lase.
The measured single-pulse waveform was recorded by using a fast photodiode detector in conjunction with a 350 MHz oscilloscope (Tektronix 2467 with C1001 video camera). […] At a pump level of ˜150 μJ, the measured one-pass two-photon absorption in the 15 cm-long dye solution filled hollow fiber sample was only about ˜25%. […]

Series [2] in a line: Two-photon photobleaching data storage in APSS-containing HEMA block.
Series [3] in a line: Two-photon pumped cavity lasing of dye-doped matrices (1.06 μm pump). To be noted: for lasing peak: 1.06 μm pump; for lasing pulsewidth: 10 ns pump pulse. The method, then:
Two-photon pumped cavity lasing experiments were conducted using a Q-switched Nd-YAG pulsed laser source having a wavelength of 1.06 μm, a pulsewidth of about 10 ns, a spectral width of about 1 cm^−1, an angular divergence of about 1.3 mrad, and a variable repetition rate of 1-10 Hz. A 1 cm-long quartz cuvette filled with dye1 solution in cyclopentanone (do≈8×10^−2 to 4×10^−2M) and a 7 mm-long, dye1 -doped poly(HEMA) rod (do,≈8×10^−3 M), prepared in accordance with Example 12, were used separately for two-photon pumped (“TPP”) lasing observation. The 1.06 μm-pump laser beam was focused on the center of the cuvette or sample rod, and a strong orange-red fluorescence emission was observed when the infrared pump intensity reached several MW/cm^2. Once the pump intensity further increased to a certain threshold level, simultaneous forward and backward highly directional superradiation could be observed from the solution or rod samples. To achieve cavity lasing, two parallel plane dielectrc-coating mirrors were employed to form a cavity. The pump beam, focused through a f-10 cm lens, was coupled into the cavity by normal incidence. The reflectivity was r=10% at 1.06 μm and r=99% at 600 nm for the front mirror (input coupler) and r=10% at 1.06 μm and r=50% at 600 nm for the rear mirror (output coupler). The total cavity length was 7˜8 cm, and the cuvette or sample rod was located at the center of the cavity. […] FIGS. 11A-11C show the emission spectra of the same 7 mm-long, dye1 -doped rod sample under the following different excitation conditions: 532 nm one-photon excited fluorescence emission (FIG. 11A), 1.06 μm two-photon excited fluorescence emission (FIG. 11B), and 1.06 μm pumped cavity lasing (FIG. 11C). Each spectrum was obtained using a grating -spectrograph in conjunction with an optical multi-channel analyzer (OMA-III) system. The difference between FIGS. 11A and 11B can be explained by a volume reabsorption effect of the emission. To obtain these two spectra, the excitation beam was incident on the rod end at a +45° angle, and the fluorescence was measured at a −45° angle. In the case of FIG. 11A, the emission was mainly from a shallow surface layer of the sample because of the very short penetration depth of the 532 nm pump radiation, and therefore, the reabsorption effect within the sample can be neglected. However, for the case of FIG. 11B, the incident infrared beam could pass through the whole rod length without obvious depletion, and, consequently, collected fluorescence signals of different spectral components were propagated within the sample for a considerable distance. […] Cavity lasing occurred at the central region of the two-photon absorption (“TPA”) induced fluorescence band, but the lasing bandwidth (˜8 nm) was much narrower than the ordinary one-photon excited fluorescence band width (˜60 nm) due to the lasing threshold requirement. In addition, a red-shift of the central lasing wavelength was observed as the pump energy increased. This shift may be caused by the local temperature change of the sample rod.
Compared to the smooth temporal profile of the 10 ns pump pulse, the lasing pulses manifested much shorter rise- and fall-times, i.e. ≦1.5 ns limited by the resolution of the detecting system. In addition, the lasing pulse duration (˜1.5 ns at a moderate pump level) was much less than the pump pulse duration.
The lasing output/pump input characteristic curve is given in FIG. 13 for the rod cavity lasing. Each data point was an average result over 10 laser pulses by using a gated integrator and boxcar averager system, and the solid line is the best fitted curve based on the square law that should be followed for a two-photon excitation process. The energy conversion efficiency from pump input to lasing output was estimated as η≈0.8% at input energy level of 1.3 mJ. However, at this pump level the measured one-pass two-photon absorption in the 7 mm-long rod was only about 23%. […]

The nature of series [4]: Optical characterization of the solution state (ethanol).
Series [5] in a line: Infrared detection: visible emission of dye-doped film exposed to 1.06 μm Nd-YAG laser.
[6] abbreviates: 7 mm poly(HEMA) rod, input 1.3 mJ.
Where [7] appears, read: cyclopentanone solution, 0.003 M.

Several values for one entry are separate records, joined by “and”; a condition that tells them apart may be missing. Identical values can stand only once. Marks after values point to notes of the source that are not given here. Where only a bound is given, the exact number is not on record here.

`CN(CCO)c1ccc(C=Cc2ccc(S(=O)(=O)CCCCCCO)cc2)cc1` [APSS]: the one-pass two-photon absorption in series [1] (15 cm hollow fiber, pump ˜150 μJ) was about 25%. In series [1] (DMSO 0.012 M, 15 cm hollow fiber, 800 nm pump, 290 μJ), this compound returned a central lasing wavelength of about 565 nm. Moreover, the “net conversion efficiency from absorbed pump energy to lasing output η” value in series [1] (pump ˜150 μJ) is reported as “≈ 2.3%”. For the same compound, the “pump threshold for lasing” value in series [1] (solution filled hollow fiber) lay within 20 to 30 µJ. For the same compound, the “two-photon induced fluorescence at focal point” value in series [2] (HEMA block, 798 nm Ti:Sapphire) is listed as “strong two-photon induced green fluorescence”. The photobleaching during reading entry in series [2] (faster scan, dose reduced by over two orders of magnitude) is recorded as “no noticeable photobleaching occurred”.
`CCN(CCO)c1ccc(/C=C/c2cc[n+](CCO)cc2)cc1.[I-]` [ASPI, trans-4-[p-(N-ethyl-N-hydroxyethylamino)styryl]-N-hydroxyethylpyridinium iodide]: the “two-photon pumped cavity lasing” value in series [3] (dye-doped sol gel glass) is on record as “observed”. In series [4], the “concentration of highest lasing slope efficiency” value was 820 µM and the “tunability FWHM” value was “approximately 37 nm”. The “Lasing Tunability” value in series [4] (532 nm pump, 2 Hz, grating) is reported as 599-635 nm.
For the compound `CCN(CCO)c1ccc(/C=C/c2cc[n+](C)cc2)cc1.c1ccc([B-](c2ccccc2)(c2ccccc2)c2ccccc2)cc1` [dye1, trans-4-[p-(N-ethyl-N-hydroxyethylamino)styryl]-N-methylpyridinium tetraphenyborate], in series [5] (50 μm polyurethane film, 1.06 μm Nd-YAG laser), the “emission intensity dependence on incident infrared laser beam intensity” value is on record as “quadratic dependence”. Besides, the “visible emission on exposure to infrared beam” value in series [5] (polyurethane film, 1.06 μm, several MW/cm^2) is listed as “localized bright red emission”. Further, in series [3] (2 Hz, without cooling), the “lasing life time (pulses before pulse energy decreased to 10˜15% of initial)” value was > 4×10^4 pulses. Further, the “conversion efficiency from absorbed pump energy to lasing output” value in series [3] (7 mm poly(HEMA) rod, corrected) is recorded as 3.5%. The “energy conversion efficiency from pump input to lasing output η” value in series [3] (setting [6]) is on record as “≈ 0.8%”. In series [3] (setting [6]), the one-pass two-photon absorption entry is recorded as “about 23%”. Besides, the lasing bandwidth is 8 nm in series [3] (Vycor glass 0.0015M); 14^b nm in series [3] (setting [7]); “≈ 8 nm and 8 nm” in series [3] (poly(HEMA) 0.008M); 8 nm in series [3] (sol-gel glass 0.0015 M). Further, the lasing peak in series [3] (Vycor glass 0.0015M) was 600 nm; in series [3] (setting [7]), 623^b nm; in series [3] (poly(HEMA) 0.008M), 597 nm; in series [3] (sol-gel glass 0.0015 M), 590 nm. Also, the lasing pulsewidth in series [3] (Vycor glass 0.0015M) is 2 ns; in series [3] (setting [7]), 1.5^b ns; in series [3] (poly(HEMA) 0.008M), ~1.5 ns and 2 ns; in series [3] (sol-gel glass 0.0015 M), 1.5 ns. Besides, the “two-photon pumped cavity lasing” value in series [3] (dye-doped Vycor glass) and in series [3] (dye-doped sol gel glass) was “observed” throughout. In series [3] (dye-doped polymer rod, limited by detector resolution), the “lasing pulse rise- and fall-times” value is recorded as at most 1.5 ns.
Turning to `CN(C)c1ccc(/C=C/c2cc[n+](C)cc2)cc1.c1ccc([B-](c2ccccc2)(c2ccccc2)c2ccccc2)cc1` [dye2, trans-4-[p-(N,N-dimethylamino)styryl]-N-methylpyridinium tetraphenyborate], the “two-photon pumped cavity lasing” value in series [3] (dye-doped sol gel glass) was “observed”.
The same measure, in the same setting: under “trans-4-[p-(-ethyl-N-hydroxyethylamino)styryl]-N-butansulfonpyridinum [dye4]” stands “observed”.
